Some of the results follow. The main result of the screen is listed elsewhere. These columns were measured beside it and carry no call. The list favours compounds with an active or inconclusive main result. The note in brackets gives the kind of curve behind each potency; many fits are weak.

We go through 19 compounds from PubChem BioAssay AID662 (National Center for Advancing Translational Sciences (NCATS), 2007).

This experiment can be described thus: Cell signaling CRE-BLA (Fsk stim). To be noted: CHO CRE-bla reporter (cAMP response element driving beta-lactamase), forskolin EC10, beta-lactamase ratio; measured here: 460 nm blue channel. The gist of the method:
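qHTS titration format; CRE-bla CHO reporter; stimulus EC10 NKH 477, a water-soluble forskolin. Read: CCF4 460/530 nm ratio. Potency expressed as AC50 for activators or inhibitors.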
As a reminder, the AC50 is the midpoint of the concentration-response curve, whichever way the signal moves. `Cc1cc(C)n2nc(SCc3nc4ccccc4[nH]3)nc2n1`: the AC50 is 1 µM [rising, partial curve]. To `CCNc1ncc2nc(-c3ccc(OC)cc3)c(=O)n(Cc3ccc(F)cc3)c2n1` belongs 0.794 µM [rising, full curve]; to `COc1ccc(C(=O)COC(=O)CN2C(=O)C3C4C=CC(C4)C3C2=O)cc1` (centres undefined), 25.1 µM [rising, single point].

On to `CCCn1c(=O)c2[nH]c(C3CCCC3)nc2n(CCC)c1=O`, for which the AC50 is 5.01 µM [rising, partial curve]. `CC1(C)Cc2ccccc2-c2nnc(SCc3ccc(C#N)cc3)n21`: the AC50 was 12.6 µM [rising, single point]. As to `COc1ccc(CCNc2oc(COc3ccc(Br)cc3)nc2C#N)cc1OC`, the AC50 was 10 µM [falling, single point]. For the compound `O=C(Nc1nc2c(s1)CCCC2)c1ccc2ncsc2c1`, the AC50 is 10 µM [rising, partial curve]. The value for `Cc1ccccc1C(=O)c1cccn1CC(=O)NCC1CCCO1` (centres undefined) was 20 µM [rising, single point]; that for `CC(C)Cn1cnc2c(SCc3ccc(Cl)cc3Cl)nc(N)nc21` was 3.98 µM [rising, partial curve]; that for `COC(=O)c1c(C(=O)OC)c2oc3ccccc3n2c1Cl` was 12.6 µM [rising, partial curve]. The value for `O=C(COc1ccc2c3c(c(=O)oc2c1)CCC3)NC1CCCCC1` was 25.1 µM [rising, single point]. Turning to `Cn1c(=O)c(-c2cccs2)nc2cnc(N3CCOCC3)nc21`, the AC50 is 5.01 µM [rising, partial curve].

Regarding `Cc1ccc(-c2nn(-c3ccccc3)cc2CN(Cc2ccccc2)C(=O)CCC(=O)O)o1`, the AC50 is 20 µM [rising, single point]. To `Cc1ccc(Cn2nnc3c(=O)n(CC(=O)N4CCN(c5ccccc5)CC4)cnc32)cc1` belongs 0.00631 µM [falling, full curve]; to `CCOC(=O)C1=C(C)NC2=C(C(=O)C(C(=O)OCC)C(c3ccco3)C2)C1c1ccccn1` (centres undefined), 12.6 µM [rising, partial curve]; to `COC(=O)c1c(NC(=O)CN2CCOCC2)sc2c1CCC(C)C2` (centres undefined), 5.01 µM [rising, single point]. To `COc1cccc(Nc2ncc3nc(-c4cccs4)c(=O)n(-c4ccccc4)c3n2)c1` belongs 1.58 µM [rising, full curve]. The value for `COc1ccc(C2c3c(oc4ccccc4c3=O)C(=O)N2c2ccc(C)cn2)cc1OC` (centres undefined) was 10 µM [rising, partial curve]; that for `Cc1c(C(=O)Nc2ccc3c(c2)OCCO3)sc2nc(-c3ccccc3)cn12` was 15.8 µM [falling, single point].
